Earlier results in patent publication US5605911A, “Use of alpha-2 adrenergic drugs to prevent adverse effects of NMDA receptor hypofunction (NRH)” (priority 1995, dated 1997).

System: neurotoxic side effects caused by NMDA antagonists such as PCP or MK-801
Details: in vivo; cited from earlier work

CN1[C@@H]2CC[C@H]1C[C@@H](OC(=O)C(CO)c1ccccc1)C2 (stereo partly drawn) [atropine]
block of neurotoxic side effects caused by NMDA antagonists: can block the neurotoxic side effects caused by NMDA antagonists

CN(C)CCOC(c1ccccc1)c1ccccc1 [diphenhydramine]
block of neurotoxic side effects caused by NMDA antagonists: can block the neurotoxic side effects caused by NMDA antagonists

CN1[C@@H]2C[C@@H](OC(=O)[C@H](CO)c3ccccc3)C[C@H]1[C@@H]1O[C@@H]12 [scopolamine]
block of neurotoxic side effects caused by NMDA antagonists: can block the neurotoxic side effects caused by NMDA antagonists
